# Laboratory results from the supplement of paper PMC8728848.
# Some of the results follow.
# B1: Epa3to2 (Candida glabrata) (protein)
# chain: MGSSHHHHHHSSGLVPRGSHMKRELSSQNPFGYPIGCSPQDVAIIPGLTMELYSYPIVSGTPPNCYDASYVDPEYPRTGYLKRKMVGKSTGVTGNLNYKYSVEKACMVKYGNLPAGYNYNEPLTVSNFTMILYGYFKAQTTGLHTFFVNADDLLYINFGAGNAFDCCKREDSKTKLGEYVAYDIWHVDSSKNKVSLFLEKDLYYPIRMFFNNRDNNSSLDLSFSVNGATDQISDFSGYLYSVPDQPDTCPAHIGYDTTCR
# Assays:
# Assay in all cases: glycan array binding signal (z-score within array); higher = stronger binding
# Conditions in all cases: glycan notation: IUPAC condensed, linker removed
# [1] = target: GlcNAc(b1-2)Gal(b1-3)GalNAc
# In short: (§1)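 Glycan array binding is given as a within-array Z-score, which can be read as non-binding when negative. The arrays, 3228 of them, came from the Consortium for Functional Glycomics database and were retained only where the protein sequence was available. Z-scores were averaged across arrays of the same protein sequence at different concentrations or buffers and across linkers.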
# [2] = target: GlcNAc(b1-2)Man(a1-3)[GlcNAc(b1-2)Man(a1-6)]Man(b1-4)GlcNAc(b1-4)GlcNAc
# In short: as §1
# [3] = target: GlcNAc(b1-2)Man(a1-3)[GlcNAc(b1-2)Man(a1-6)]Man(b1-4)GlcNAc(b1-4)[Fuc(a1-6)]GlcNAc
# In short: as §1
# [4] = target: GlcNAc(b1-2)Man(a1-3)[GlcNAc(b1-4)][GlcNAc(b1-2)Man(a1-6)]Man(b1-4)GlcNAc(b1-4)GlcNAc
# In short: as §1
# [5] = target: GlcNAc(b1-2)Man(a1-3)[GlcNAc(b1-4)][GlcNAc(b1-2)Man(a1-6)]Man(b1-4)GlcNAc(b1-4)[Fuc(a1-6)]GlcNAc
# In short: as §1
# [6] = target: GlcNAc(b1-2)[GlcNAc(b1-4)]Man(a1-3)[GlcNAc(b1-2)Man(a1-6)]Man(b1-4)GlcNAc(b1-4)GlcNAc
# In short: as §1
# [7] = target: GlcNAc(b1-2)[GlcNAc(b1-4)]Man(a1-3)[GlcNAc(b1-4)][GlcNAc(b1-2)Man(a1-6)]Man(b1-4)GlcNAc(b1-4)GlcNAc
# In short: as §1
# [8] = target: GlcNAc(b1-2)[GlcNAc(b1-4)]Man(a1-3)[GlcNAc(b1-4)][GlcNAc(b1-2)[GlcNAc(b1-6)]Man(a1-6)]Man(b1-4)GlcNAc(b1-4)GlcNAc
# In short: as §1
# [9] = target: GlcNAc(b1-2)[GlcNAc(b1-4)]Man(a1-3)[GlcNAc(b1-4)][GlcNAc(b1-2)[GlcNAc(b1-6)]Man(a1-6)]Man(b1-4)GlcNAc(b1-4)[Fuc(a1-6)]GlcNAc
# In short: as §1
# [10] = target: GlcNAc(b1-2)[GlcNAc(b1-6)]Man(a1-6)[GlcNAc(b1-2)Man(a1-3)]Man(b1-4)GlcNAc(b1-4)GlcNAc
# In short: as §1
# [11] = target: GlcNAc(b1-2)[GlcNAc(b1-6)]Man(a1-6)[GlcNAc(b1-2)Man(a1-3)]Man(b1-4)GlcNAc(b1-4)[Fuc(a1-6)]GlcNAc
# In short: as §1
# [12] = target: GlcNAc(b1-2)[GlcNAc(b1-6)]Man(a1-6)[GlcNAc(b1-4)][GlcNAc(b1-2)Man(a1-3)]Man(b1-4)GlcNAc(b1-4)GlcNAc
# In short: as §1
# GlcNAc(b1-3)Fuc = target: GlcNAc(b1-3)Fuc
# In short: as §1
# GlcNAc(b1-3)Gal = target: GlcNAc(b1-3)Gal
# In short: as §1
# [13] = target: GlcNAc(b1-3)Gal(b1-3)GalNAc
# In short: as §1
# GlcNAc(b1-3)Gal(b1-4)Glc = target: GlcNAc(b1-3)Gal(b1-4)Glc
# In short: as §1
# [14] = target: GlcNAc(b1-3)Gal(b1-4)GlcNAc
# In short: as §1
# [15] = target: GlcNAc(b1-3)Gal(b1-4)GlcNAc(b1-2)Man(a1-3)[GlcNAc(b1-3)Gal(b1-4)GlcNAc(b1-2)Man(a1-6)]Man(b1-4)GlcNAc(b1-4)GlcNAc
# In short: as §1
# [16] = target: GlcNAc(b1-3)Gal(b1-4)GlcNAc(b1-2)Man(a1-3)[GlcNAc(b1-3)Gal(b1-4)GlcNAc(b1-2)Man(a1-6)]Man(b1-4)GlcNAc(b1-4)[Fuc(a1-6)]GlcNAc
# In short: as §1
# [17] = target: GlcNAc(b1-3)Gal(b1-4)GlcNAc(b1-2)[GlcNAc(b1-3)Gal(b1-4)GlcNAc(b1-6)]Man(a1-6)[GlcNAc(b1-3)Gal(b1-4)GlcNAc(b1-2)Man(a1-3)]Man(b1-4)GlcNAc(b1-4)GlcNAc
# In short: as §1
# [18] = target: GlcNAc(b1-3)Gal(b1-4)GlcNAc(b1-3)Gal(b1-4)GlcNAc
# In short: as §1
# [19] = target: GlcNAc(b1-3)Gal(b1-4)GlcNAc(b1-3)Gal(b1-4)GlcNAc(b1-2)Man(a1-3)[GlcNAc(b1-3)Gal(b1-4)GlcNAc(b1-3)Gal(b1-4)GlcNAc(b1-2)Man(a1-6)]Man(b1-4)GlcNAc(b1-4)GlcNAc
# In short: as §1
# [20] = target: GlcNAc(b1-3)Gal(b1-4)GlcNAc(b1-3)Gal(b1-4)GlcNAc(b1-2)Man(a1-3)[GlcNAc(b1-3)Gal(b1-4)GlcNAc(b1-3)Gal(b1-4)GlcNAc(b1-2)Man(a1-6)]Man(b1-4)GlcNAc(b1-4)[Fuc(a1-6)]GlcNAc
# In short: as §1
# [21] = target: GlcNAc(b1-3)Gal(b1-4)GlcNAc(b1-3)Gal(b1-4)GlcNAc(b1-2)[GlcNAc(b1-3)Gal(b1-4)GlcNAc(b1-3)Gal(b1-4)GlcNAc(b1-6)]Man(a1-6)[GlcNAc(b1-3)Gal(b1-4)GlcNAc(b1-3)Gal(b1-4)GlcNAc(b1-2)Man(a1-3)]Man(b1-4)GlcNAc(b1-4)[Fuc(a1-6)]GlcNAc
# In short: as §1
# [22] = target: GlcNAc(b1-3)Gal(b1-4)GlcNAc(b1-3)Gal(b1-4)GlcNAc(b1-3)Gal(b1-4)GlcNAc(b1-2)Man(a1-3)[GlcNAc(b1-3)Gal(b1-4)GlcNAc(b1-3)Gal(b1-4)GlcNAc(b1-3)Gal(b1-4)GlcNAc(b1-2)Man(a1-6)]Man(b1-4)GlcNAc(b1-4)GlcNAc
# In short: as §1
# [23] = target: GlcNAc(b1-3)Gal(b1-4)GlcNAc(b1-3)Gal(b1-4)GlcNAc(b1-3)Gal(b1-4)GlcNAc(b1-2)Man(a1-3)[GlcNAc(b1-3)Gal(b1-4)GlcNAc(b1-3)Gal(b1-4)GlcNAc(b1-3)Gal(b1-4)GlcNAc(b1-2)Man(a1-6)]Man(b1-4)GlcNAc(b1-4)[Fuc(a1-6)]GlcNAc
# In short: as §1
# [24] = target: GlcNAc(b1-3)Gal(b1-4)GlcNAc(b1-3)Gal(b1-4)GlcNAc(b1-3)Gal(b1-4)GlcNAc(b1-2)[GlcNAc(b1-3)Gal(b1-4)GlcNAc(b1-3)Gal(b1-4)GlcNAc(b1-3)Gal(b1-4)GlcNAc(b1-6)]Man(a1-6)[GlcNAc(b1-3)Gal(b1-4)GlcNAc(b1-3)Gal(b1-4)GlcNAc(b1-3)Gal(b1-4)GlcNAc(b1-2)Man(a1-3)]Man(b1-4)GlcNAc(b1-4)[Fuc(a1-6)]GlcNAc
# In short: as §1
# [25] = target: GlcNAc(b1-3)Gal(b1-4)GlcNAc(b1-3)Gal(b1-4)GlcNAc(b1-3)Gal(b1-4)GlcNAc(b1-3)Gal(b1-4)GlcNAc(b1-2)Man(a1-3)[GlcNAc(b1-3)Gal(b1-4)GlcNAc(b1-3)Gal(b1-4)GlcNAc(b1-3)Gal(b1-4)GlcNAc(b1-3)Gal(b1-4)GlcNAc(b1-2)Man(a1-6)]Man(b1-4)GlcNAc(b1-4)GlcNAc
# In short: as §1
# [26] = target: GlcNAc(b1-3)Gal(b1-4)GlcNAc(b1-3)Gal(b1-4)GlcNAc(b1-3)Gal(b1-4)GlcNAc(b1-3)Gal(b1-4)GlcNAc(b1-2)Man(a1-3)[GlcNAc(b1-3)Gal(b1-4)GlcNAc(b1-3)Gal(b1-4)GlcNAc(b1-3)Gal(b1-4)GlcNAc(b1-3)Gal(b1-4)GlcNAc(b1-2)Man(a1-6)]Man(b1-4)GlcNAc(b1-4)[Fuc(a1-6)]GlcNAc
# In short: as §1
# [27] = target: GlcNAc(b1-3)Gal(b1-4)GlcNAc(b1-3)Gal(b1-4)GlcNAc(b1-3)Gal(b1-4)GlcNAc(b1-3)Gal(b1-4)GlcNAc(b1-2)[GlcNAc(b1-3)Gal(b1-4)GlcNAc(b1-3)Gal(b1-4)GlcNAc(b1-3)Gal(b1-4)GlcNAc(b1-3)Gal(b1-4)GlcNAc(b1-6)]Man(a1-6)[GlcNAc(b1-3)Gal(b1-4)GlcNAc(b1-3)Gal(b1-4)GlcNAc(b1-3)Gal(b1-4)GlcNAc(b1-3)Gal(b1-4)GlcNAc(b1-2)Man(a1-3)]Man(b1-4)GlcNAc(b1-4)[Fuc(a1-6)]GlcNAc
# In short: as §1
# [28] = target: GlcNAc(b1-3)Gal(b1-4)GlcNAc(b1-3)Gal(b1-4)GlcNAc(b1-3)GalNAc
# In short: as §1
# [29] = target: GlcNAc(b1-3)Gal(b1-4)GlcNAc(b1-3)GalNAc
# In short: as §1
# [30] = target: GlcNAc(b1-3)Gal(b1-4)GlcNAc(b1-3)[GlcNAc(b1-3)Gal(b1-4)GlcNAc(b1-3)]GalNAc
# In short: as §1
# [31] = target: GlcNAc(b1-3)Gal(b1-4)GlcNAc(b1-6)[Gal(b1-3)]GalNAc
# In short: as §1
# [32] = target: GlcNAc(b1-3)Gal(b1-4)GlcNAc(b1-6)[GlcNAc(b1-3)Gal(b1-3)]GalNAc
# In short: as §1
# [33] = target: GlcNAc(b1-3)Gal(b1-4)GlcNAc(b1-6)[GlcNAc(b1-3)]Gal(b1-4)GlcNAc
# In short: as §1
# GlcNAc(b1-3)GalNAc = target: GlcNAc(b1-3)GalNAc
# In short: as §1
# GlcNAc(b1-3)Man = target: GlcNAc(b1-3)Man
# In short: as §1
# [34] = target: GlcNAc(b1-3)[GlcNAc(b1-4)][GlcNAc(b1-6)]GlcNAc
# In short: as §1
# [35] = target: GlcNAc(b1-3)[GlcNAc(b1-6)]Gal(b1-4)GlcNAc
# In short: as §1
# [36] = target: GlcNAc(b1-3)[GlcNAc(b1-6)]GalNAc
# In short: as §1
# [37] = target: GlcNAc(b1-4)Gal(b1-4)GlcNAc
# In short: as §1
# GlcNAc(b1-4)GlcNAc = target: GlcNAc(b1-4)GlcNAc
# In short: as §1
# [38] = target: GlcNAc(b1-4)GlcNAc(b1-4)GlcNAc
# In short: as §1
# [39] = target: GlcNAc(b1-4)GlcNAc(b1-4)GlcNAc(b1-4)GlcNAc(b1-4)GlcNAc
# In short: as §1
binder,measurement,setting,value
B1,glycan array binding signal (z-score),[1],-1.16
same,glycan array binding signal (z-score),[2],0.466
same,glycan array binding signal (z-score),[3],-0.32
same,glycan array binding signal (z-score),[4],1.19
same,glycan array binding signal (z-score),[5],-0.594
same,glycan array binding signal (z-score),[6],-0.097
same,glycan array binding signal (z-score),[7],0.595
same,glycan array binding signal (z-score),[8],-0.467
same,glycan array binding signal (z-score),[9],-0.111
same,glycan array binding signal (z-score),[10],-0.017
same,glycan array binding signal (z-score),[11],-0.719
same,glycan array binding signal (z-score),[12],-0.416
same,glycan array binding signal (z-score),GlcNAc(b1-3)Fuc,0.679
same,glycan array binding signal (z-score),GlcNAc(b1-3)Gal,-1.74
same,glycan array binding signal (z-score),[13],-0.266
same,glycan array binding signal (z-score),GlcNAc(b1-3)Gal(b1-4)Glc,-0.764
same,glycan array binding signal (z-score),[14],-1.06
same,glycan array binding signal (z-score),[15],-0.686
same,glycan array binding signal (z-score),[16],1.04
same,glycan array binding signal (z-score),[17],0.124
same,glycan array binding signal (z-score),[18],-1.41
same,glycan array binding signal (z-score),[19],-0.593
same,glycan array binding signal (z-score),[20],0.358
same,glycan array binding signal (z-score),[21],-0.039
same,glycan array binding signal (z-score),[22],0.075
same,glycan array binding signal (z-score),[23],1.19
same,glycan array binding signal (z-score),[24],-0.422
same,glycan array binding signal (z-score),[25],-0.038
same,glycan array binding signal (z-score),[26],1.62
same,glycan array binding signal (z-score),[27],0.146
same,glycan array binding signal (z-score),[28],-0.509
same,glycan array binding signal (z-score),[29],0.312
same,glycan array binding signal (z-score),[30],-0.512
same,glycan array binding signal (z-score),[31],0.756
same,glycan array binding signal (z-score),[32],-1.78
same,glycan array binding signal (z-score),[33],-0.506
same,glycan array binding signal (z-score),GlcNAc(b1-3)GalNAc,-1.42
same,glycan array binding signal (z-score),GlcNAc(b1-3)Man,1.38
same,glycan array binding signal (z-score),[34],0.374
same,glycan array binding signal (z-score),[35],-0.215
same,glycan array binding signal (z-score),[36],-0.556
same,glycan array binding signal (z-score),[37],-0.138
same,glycan array binding signal (z-score),GlcNAc(b1-4)GlcNAc,1.27
same,glycan array binding signal (z-score),[38],-1.13
same,glycan array binding signal (z-score),[39],0.341

# A different layout for some results above.
binder | measurement | setting | value
B1 | glycan array binding signal (z-score) | GlcNAc(b1-4)GlcNAc | 1.27
same | glycan array binding signal (z-score) | [38] | -1.13
